The values below come from paper PMC3407074.

Amino acid sequences for entries named in this document (tags omitted). Residues count along the entry.
UniProt Q8I1Y0, residues 21-378: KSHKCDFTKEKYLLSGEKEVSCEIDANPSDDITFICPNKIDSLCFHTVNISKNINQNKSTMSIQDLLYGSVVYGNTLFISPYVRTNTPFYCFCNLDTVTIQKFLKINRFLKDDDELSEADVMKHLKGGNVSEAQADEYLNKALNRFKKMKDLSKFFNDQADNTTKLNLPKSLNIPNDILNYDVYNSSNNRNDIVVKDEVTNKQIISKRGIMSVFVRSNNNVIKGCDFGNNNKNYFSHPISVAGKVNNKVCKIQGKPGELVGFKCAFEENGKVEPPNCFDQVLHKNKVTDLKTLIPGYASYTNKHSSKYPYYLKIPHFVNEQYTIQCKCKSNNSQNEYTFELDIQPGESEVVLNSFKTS

For this test, the target named is T1, native P12 (Plasmodium falciparum (endogenous in 3D7 and CS2 parasites)) (UniProt C6KSX0).
T1 sequence: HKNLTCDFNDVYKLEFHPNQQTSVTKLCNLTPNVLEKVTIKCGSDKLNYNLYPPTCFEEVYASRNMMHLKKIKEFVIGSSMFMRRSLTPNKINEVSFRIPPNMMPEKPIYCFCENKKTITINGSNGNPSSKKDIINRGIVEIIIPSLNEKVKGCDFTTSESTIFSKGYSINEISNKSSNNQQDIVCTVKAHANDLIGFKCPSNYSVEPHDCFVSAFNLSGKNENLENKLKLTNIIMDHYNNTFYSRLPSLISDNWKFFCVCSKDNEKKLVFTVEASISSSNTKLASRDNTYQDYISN
In words: affinity purification with mass spectrometry; 3D7 schizont lysate in 1% Triton X-100 in PBS, rabbit anti-P12 IgG on Protein G agarose; eluted in turn with 0.1 M glycine, 0.1 M glycine with 1 M NaCl, and 2% SDS; Coomassie bands identified by LC-MS/MS.

No constants are given. Whether binding was seen depends on the method and setting. In cells and extracts the contact can be indirect. A yes stands for co-enrichment or nearness to the bait. Other partners may have been found. No binding means not detected with the bait.

Consider ER localised HSP70 BIP, for which the binding result is “no binding”.

As to native P41 (from UniProt Q8I1Y0 21-378), the binding entry is recorded as “binds”.
